These are yes or no findings as the source states them, for the method shown. In cells and extracts the contact can be indirect. Some entries that bind do so weakly or less than the wild type.

By UniProt entry, the sequences of proteins in these tests, tags left out. Residues count along the entry.
UniProt P12830, residues 731-882: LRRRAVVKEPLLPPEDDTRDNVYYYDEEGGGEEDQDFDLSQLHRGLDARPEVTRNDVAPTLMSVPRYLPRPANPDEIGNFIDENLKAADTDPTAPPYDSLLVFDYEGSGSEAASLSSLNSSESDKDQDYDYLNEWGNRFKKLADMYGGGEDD

Consider one substance from US20090192112A1 (REGENTS OF THE UNIVERSITY OF MICHIGAN, published 2009).

For the test, the target named is T1, β-catenin (human, UniProt P35222 2-781).
T1 construct: Endogenous protein in cell lysate; also called beta-catenin
T1 sequence (looked up): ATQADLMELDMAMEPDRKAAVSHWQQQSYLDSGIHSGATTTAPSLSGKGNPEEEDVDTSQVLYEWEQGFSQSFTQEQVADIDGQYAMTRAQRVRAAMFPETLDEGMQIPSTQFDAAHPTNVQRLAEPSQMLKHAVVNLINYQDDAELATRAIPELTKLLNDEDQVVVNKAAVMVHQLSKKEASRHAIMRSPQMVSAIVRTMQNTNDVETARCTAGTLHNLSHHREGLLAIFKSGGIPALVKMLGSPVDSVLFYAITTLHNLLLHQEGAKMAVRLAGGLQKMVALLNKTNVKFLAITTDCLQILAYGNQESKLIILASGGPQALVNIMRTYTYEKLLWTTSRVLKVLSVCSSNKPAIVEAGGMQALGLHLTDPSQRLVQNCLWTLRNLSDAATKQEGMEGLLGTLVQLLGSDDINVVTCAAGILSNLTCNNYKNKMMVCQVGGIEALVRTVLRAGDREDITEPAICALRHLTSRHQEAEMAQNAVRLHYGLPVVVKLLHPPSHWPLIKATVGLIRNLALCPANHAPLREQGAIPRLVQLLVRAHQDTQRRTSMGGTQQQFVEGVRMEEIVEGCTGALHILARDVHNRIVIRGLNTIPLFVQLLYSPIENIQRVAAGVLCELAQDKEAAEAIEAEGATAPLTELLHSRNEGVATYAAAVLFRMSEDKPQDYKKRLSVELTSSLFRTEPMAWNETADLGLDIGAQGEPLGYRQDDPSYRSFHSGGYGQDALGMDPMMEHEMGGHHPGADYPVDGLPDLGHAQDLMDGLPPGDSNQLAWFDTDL
The test can be described thus: GST pull-down from HEK 293 lysate (500 ug), anti-β-catenin western blot.

Take “recombinant GST fusion protein containing the cytoplasmic tail of E-cadherin (GST-Ecad) (from UniProt P12830 731-882)”: the binding entry is listed as “binds”.
